Data published in PubChem BioAssay AID248 (DTP/NCI, 2004).
The list does not hold the whole screen: it gathers tests that were run many times, whatever their T/C, doses with no T/C, and many T/C values between a quarter and a half above the control. Other doses and runs of a compound stand elsewhere. T/C: endpoint of the treated group in % of that of the vehicle group. Some entries give survivors of the animals treated and no T/C: the source files T/C as zero there, which appears to mark a toxic dose or a test without result, not a measured value. Some survivor counts are full or nearly so, which does not show that the dose was tolerated: survival well below the control is almost never listed, so the zero probably covers shortened survival too. Survivors were counted at the toxicity check, usually on the fifth day, unless a day is given; later deaths do not show. Schedule codes are those of the source, read here as Q, the interval in days (D) or hours (H), X, the number of doses. Some doses were run more than once; the values are given in rising order. For survival time, this PubChem deposit counts one and a half times the control or more as active, and values a quarter to a half above the control carry no call in these data; other NCI protocols may use other cut-offs. Some T/C values carry the count of animals alive at the toxicity check (mostly the fifth day); where none is given, no animal had died by that day.

Test system: L1210 leukemia ip in BDF1 mice, survival T/C
Assay: NCI In Vivo Anticancer Drug Screen. Data for tumor model L1210 Leukemia (intraperitoneal) in B6D2F1 (BDF1) mice
Settings: T/C endpoint: mean survival time, higher T/C = longer survival
[1] = dose: 25.0 mg/kg/injection, schedule: Q01DX009 (ip), vehicle: saline
[2] = dose: 50.0 mg/kg/injection, schedule: Q01DX009 (ip), vehicle: saline
[3] = dose: 200.0 mg/kg/injection, schedule: Q01DX009 (ip), vehicle: saline
[4] = dose: 400.0 mg/kg/injection, schedule: Q01DX009 (ip), vehicle: saline
[5] = dose: 400.0 mg/kg/injection, schedule: Q04DX003 (ip), vehicle: saline
[6] = dose: 200.0 mg/kg/injection, schedule: Q01DX009 (ip), vehicle: saline with Tween-80
[7] = dose: 400.0 mg/kg/injection, schedule: Q01DX009 (ip), vehicle: saline with Tween-80

Question: `CS(C)=O.CS(C)=O.CS(C)=O.[Cl][Rh]([Cl])[Cl]` was tested. Which survivor count (dose: 6.25 mg/kg/injection, schedule: Q01DX009 (ip), vehicle: saline) did it give?
Answer: 6 of 6

Question: And the survivor count (dose: 12.5 mg/kg/injection, schedule: Q01DX009 (ip), vehicle: saline)?
Answer: 6 of 6

Question: And the T/C [1]?
Answer: 106, 119, 127 % of control [5 of 6 alive]

Question: And the survivor count [1]?
Answer: 5 of 6

Question: And the T/C [2]?
Answer: 95 [5 of 6 alive], 103 [5 of 6 alive], 105 % of control [4 of 6 alive]

Question: And the survivor count [2]?
Answer: 6 of 6

Question: And the survivor count (dose: 100.0 mg/kg/injection, schedule: Q01DX009 (ip), vehicle: saline)?
Answer: 0 of 6 and 1 of 6

Question: What about the survivor count [3] of the same compound?
Answer: 0 of 6

Question: What about the survivor count [4] of the same compound?
Answer: 0 of 6

Question: What about the survivor count [5] of the same compound?
Answer: 1 of 6

Question: What does the source list for `NS(=O)(=O)c1ccc(Cl)cc1`?
Answer: survivor count [3]: 0 of 6; survivor count (dose: 400.0 mg/kg/injection, schedule: Q04DX003 (ip), vehicle: saline with Tween-80): 4 of 6

Question: Which survivor count [5] does the source give for `CCC(SC(C)=O)C(=O)O` (centres undefined) here?
Answer: 1 of 6

Question: With `CC(C)(C)OC(=O)NC(C(=O)O)C1=CCC=CC1` (centres undefined) as the compound, how does the T/C (dose: 200.0 mg/kg/injection, schedule: Q04DX003 (ip), vehicle: Klucel (hydroxypropylcellulose) (HPC)) read?
Answer: 125 % of control

Question: Which results are given for `CS(=O)(=O)c1nc(Cl)c(Cl)c(C#N)c1Cl`?
Answer: survivor count (dose: 100.0 mg/kg/injection, schedule: Q01DX009 (ip), vehicle: saline with Tween-80): 0 of 6; survivor count [6]: 0 of 6; survivor count [7]: 0 of 6

Question: With `CC1=Nc2ccccc2NC(C)C1C` (centres undefined) as the compound, how does the survivor count [3] read?
Answer: 2 of 6

Question: What about the survivor count [4] of the same compound?
Answer: 0 of 6

Question: Which survivor count [7] does the source give for `N=c1ccn(C(=O)C2=Cc3cc(Cl)ccc3OC2)cc1` here?
Answer: 6 of 6

Question: Which results are given for `CC(=O)c1cccc(N2C(=O)CC(=P(c3ccccc3)(c3ccccc3)c3ccccc3)C2=O)c1`?
Answer: survivor count (dose: 150.0 mg/kg/injection, schedule: Q01DX001 (ip), vehicle: saline): 3 of 6; survivor count (dose: 300.0 mg/kg/injection, schedule: Q01DX001 (ip), vehicle: saline): 1 of 6

Question: `Cc1nc2nc(C(F)(F)F)[nH]c2nc1C` was tested. Which survivor count [7] did it give?
Answer: 0 of 6

Question: How did the survivor count [6] turn out when `CCCn1c(O)c(C(=O)CC)sc1=S` was run?
Answer: 0 of 3

Question: Which results are given for `CN(CCC(=O)c1ccccc1)C(C)(C)C`?
Answer: survivor count (dose: 200.0 mg/kg/injection, schedule: Q04DX003 (ip), vehicle: saline): 0 of 6; survivor count [5]: 0 of 6

Question: For `CCOC(=O)/C=C(\C)N(C(=O)N(CCCl)N=O)c1ccccc1`, which T/C (dose: 0.25 mg/kg/injection, schedule: Q01DX009 (ip), vehicle: Klucel (hydroxypropylcellulose) (HPC)) is on record?
Answer: 137 % of control

Question: What about the T/C (dose: 0.7 mg/kg/injection, schedule: Q01DX009 (ip), vehicle: carboxymethylcellulose (CMC)) of the same compound?
Answer: 132 % of control

Question: What about the T/C (dose: 1.5 mg/kg/injection, schedule: Q01DX009 (ip), vehicle: carboxymethylcellulose (CMC)) of the same compound?
Answer: 143 % of control

Question: What about the T/C (dose: 3.0 mg/kg/injection, schedule: Q01DX009 (ip), vehicle: carboxymethylcellulose (CMC)) of the same compound?
Answer: 147 % of control

Question: What about the T/C (dose: 4.0 mg/kg/injection, schedule: Q01DX001 (ip), vehicle: carboxymethylcellulose (CMC)) of the same compound?
Answer: 141 % of control

Question: What about the T/C (dose: 8.0 mg/kg/injection, schedule: Q01DX001 (ip), vehicle: carboxymethylcellulose (CMC)) of the same compound?
Answer: 143 % of control

Question: And the T/C (dose: 13.0 mg/kg/injection, schedule: Q01DX001 (ip), vehicle: carboxymethylcellulose (CMC))?
Answer: 134 % of control

Question: And the T/C (dose: 20.0 mg/kg/injection, schedule: Q01DX001 (ip), vehicle: carboxymethylcellulose (CMC))?
Answer: 146 % of control

Question: What about the survivor count (dose: 20.0 mg/kg/injection, schedule: Q01DX009 (ip), vehicle: Klucel (hydroxypropylcellulose) (HPC)) of the same compound?
Answer: 5 of 6

Question: What about the survivor count (dose: 45.0 mg/kg/injection, schedule: Q01DX009 (ip), vehicle: Klucel (hydroxypropylcellulose) (HPC)) of the same compound?
Answer: 6 of 6

Question: What about the survivor count (dose: 75.0 mg/kg/injection, schedule: Q01DX001 (ip), vehicle: carboxymethylcellulose (CMC)) of the same compound?
Answer: 3 of 6

Question: What about the survivor count (dose: 150.0 mg/kg/injection, schedule: Q01DX001 (ip), vehicle: carboxymethylcellulose (CMC)) of the same compound?
Answer: 0 of 6

Question: And the survivor count (dose: 300.0 mg/kg/injection, schedule: Q01DX001 (ip), vehicle: carboxymethylcellulose (CMC))?
Answer: 0 of 6
